Molecules are shown by their SMILES. The list shows a part of the results. Many values rest on one well or one pass, so single values are uncertain.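 Imaging used 1,536-well plates; nuclei positive for cleaved PARP by antibody were divided by total DNA-stained nuclei to yield the apoptosis fraction. Doses for screening kept most cells viable, and cell lines differ markedly in resting and induced cleaved-PARP levels.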

In the experiment the test system is UACC62. In words: cleaved PARP positive nuclei fraction relative to DMSO control; melanoma cells; higher = more apoptosis. Particulars: library dose: low library concentration; 72 h.
Take `NC(=O)c1ccc(N(C(N)=O)c2c(F)cccc2F)nc1-c1ccc(F)cc1F` + O=C(Nc1cccc(Cl)c1)Nc1ncc(CCNc2ncnc3ccsc23)s1 [SNS314] (first compound 0.4 µM, partner dose 0.0008 µM): the “cleaved PARP positive nuclei fraction” value is 120%.
In the case of `Cn1cnc2c(F)c(Nc3ccc(Br)cc3Cl)c(C(=O)NOCCO)cc21` [selumetinib] + Cc1ccc(NC(=O)c2cccc(N(C)C)c2)cc1NC(=O)c1ccc(O)cc1 [ZM336372] (first compound 0.015 µM, partner dose 2 µM), the “cleaved PARP positive nuclei fraction” value was found to be 124%.
For the compound `CS(=O)(=O)c1ccc(C(=O)Nc2ccc(Cl)c(-c3ccccn3)c2)c(Cl)c1` [vismodegib] + NC(=O)Nc1cc(-c2cccc(F)c2)sc1C(=O)N[C@H]1CCCNC1 [AZD7762] (first compound 1 µM, partner dose 0.02 µM), the “cleaved PARP positive nuclei fraction” value was 127%.
As for `Cn1cnc2c(F)c(Nc3ccc(Br)cc3Cl)c(C(=O)NOCCO)cc21` [selumetinib] + Cc1cc(N2CCOCC2)cc2[nH]c(-c3c(NC[C@@H](O)c4cccc(Cl)c4)cc[nH]c3=O)nc12 [BMS536924] (first compound 0.015 µM, partner dose 0.2 µM), the “cleaved PARP positive nuclei fraction” value was 69.6%.
With `Cn1cnc2c(F)c(Nc3ccc(Br)cc3Cl)c(C(=O)NOCCO)cc21` [selumetinib] + Oc1nc(-c2ccc(C(F)(F)F)cc2)nc2c1CSCC2 [XAV939] (first compound 0.015 µM, partner dose 2 µM), the “cleaved PARP positive nuclei fraction” value was 270%.
As to `COc1ccc(C2=N[C@@H](c3ccc(Cl)cc3)[C@@H](c3ccc(Cl)cc3)N2C(=O)N2CCNC(=O)C2)c(OC(C)C)c1` [Nutlin-3] + Oc1nc(-c2ccc(C(F)(F)F)cc2)nc2c1CSCC2 [XAV939] (first compound 0.1 µM, partner dose 2 µM), the “cleaved PARP positive nuclei fraction” value came to 218%.
With `NC(=O)c1ccc(N(C(N)=O)c2c(F)cccc2F)nc1-c1ccc(F)cc1F` + COc1cc2c(Oc3ccc4[nH]c(C)cc4c3F)ncnc2cc1OCCCN1CCCC1 [cediranib] (first compound 0.4 µM, partner dose 0.4 µM) the figure was 74.2%.
`Cn1cnc2c(F)c(Nc3ccc(Br)cc3Cl)c(C(=O)NOCCO)cc21` [selumetinib] + CCN(CC)CCCCNc1ncc2cc(-c3cc(OC)cc(OC)c3)c(NC(=O)NC(C)(C)C)nc2n1 [PD173074] (first compound 0.015 µM, partner dose 0.1 µM): the “cleaved PARP positive nuclei fraction” value came to 156%.
Take `CN(c1ncccc1CNc1nc(Nc2ccc3c(c2)CC(=O)N3)ncc1C(F)(F)F)S(C)(=O)=O` + Oc1nc(-c2ccc(C(F)(F)F)cc2)nc2c1CSCC2 [XAV939] (first compound 0.08 µM, partner dose 2 µM): the “cleaved PARP positive nuclei fraction” value was determined as 64.8%.
As to `Cn1cnc2c(F)c(Nc3ccc(Br)cc3Cl)c(C(=O)NOCCO)cc21` [selumetinib] + COc1ccc(COc2ccc(Cc3cnc(N)nc3N)cc2OC)cc1 [GW2580] (first compound 0.015 µM, partner dose 1 µM), the “cleaved PARP positive nuclei fraction” value is 150%.
With `NC(=O)c1ccc(N(C(N)=O)c2c(F)cccc2F)nc1-c1ccc(F)cc1F` + O=C(O)c1ccc(-c2c[nH]c3ncc(-c4ccccc4)cc23)cc1C1CCCC1 [GSK650394] (first compound 0.4 µM, partner dose 0.16 µM) the figure was 102%; with `COc1ccc(C2=N[C@@H](c3ccc(Cl)cc3)[C@@H](c3ccc(Cl)cc3)N2C(=O)N2CCNC(=O)C2)c(OC(C)C)c1` [Nutlin-3] + NC(=O)Nc1cc(-c2cccc(F)c2)sc1C(=O)N[C@H]1CCCNC1 [AZD7762] (first compound 0.1 µM, partner dose 0.02 µM), 93.7%.
Take `CS(=O)(=O)c1ccc(C(=O)Nc2ccc(Cl)c(-c3ccccn3)c2)c(Cl)c1` [vismodegib] + Cc1ccc(NC(=O)c2cccc(N(C)C)c2)cc1NC(=O)c1ccc(O)cc1 [ZM336372] (first compound 1 µM, partner dose 2 µM): the “cleaved PARP positive nuclei fraction” value was determined as 70.7%.
Consider `CCCCCCCCc1ccc(CCC(N)(CO)CO)cc1` [fingolimod] + Cn1cc(/C=C2\C(=O)Nc3cccnc32)c2ccccc21 [GW441756] (first compound 2 µM, partner dose 0.4 µM), for which the “cleaved PARP positive nuclei fraction” value came out at 158%.
In the case of `NC1(c2ccc(-c3nc4ccn5c(=O)[nH]nc5c4cc3-c3ccccc3)cc2)CCC1` + C=CCn1c(=O)c2cnc(Nc3ccc(N4CCN(C)CC4)cc3)nc2n1-c1cccc(C(C)(C)O)n1 [MK1775] (first compound 0.4 µM, partner dose 0.02 µM) it was 236%.
In the case of `C[C@]1(O)C[C@@H](c2nc(-c3ccc4ccc(-c5ccccc5)nc4c3)c3c(N)nccn32)C1` + O=C(Nc1cccc(Cl)c1)Nc1ncc(CCNc2ncnc3ccsc23)s1 [SNS314] (first compound 0.4 µM, partner dose 0.0008 µM), the “cleaved PARP positive nuclei fraction” value stood at 179%.
On to `CC1(C)CCC(c2ccc(Cl)cc2)=C(CN2CCN(c3ccc(C(=O)NS(=O)(=O)c4ccc(N[C@H](CCN5CCOCC5)CSc5ccccc5)c(S(=O)(=O)C(F)(F)F)c4)cc3)CC2)C1` + O=C1NC(=O)/C(=C/c2ccc(-c3ccc(F)cc3O)o2)S1 [AS252424] (first compound 0.4 µM, partner dose 1 µM), for which the “cleaved PARP positive nuclei fraction” value worked out at 99.3%.
On to `CC1(C)CCC(c2ccc(Cl)cc2)=C(CN2CCN(c3ccc(C(=O)NS(=O)(=O)c4ccc(N[C@H](CCN5CCOCC5)CSc5ccccc5)c(S(=O)(=O)C(F)(F)F)c4)cc3)CC2)C1` + c1cc(-c2cnn3cc(-c4ccc(OCCN5CCCCC5)cc4)cnc23)ccn1 [Dorsomorphin] (first compound 0.4 µM, partner dose 0.4 µM), for which the “cleaved PARP positive nuclei fraction” value was 152%.
As for `CN(c1ncccc1CNc1nc(Nc2ccc3c(c2)CC(=O)N3)ncc1C(F)(F)F)S(C)(=O)=O` + CCN(CC)CCCCNc1ncc2cc(-c3cc(OC)cc(OC)c3)c(NC(=O)NC(C)(C)C)nc2n1 [PD173074] (first compound 0.08 µM, partner dose 0.1 µM), the “cleaved PARP positive nuclei fraction” value came out at 119%.

(Values after the supplement of paper PMC4604168 (melanoma cell lines).)
